In paper PMC8508526 (Cancers, 2021):
These are yes or no findings as the source states them, for the method shown.

Amino acid sequences for entries named in this document (tags omitted). Residues count along the entry.
UniProt P35441, residues 19-1170: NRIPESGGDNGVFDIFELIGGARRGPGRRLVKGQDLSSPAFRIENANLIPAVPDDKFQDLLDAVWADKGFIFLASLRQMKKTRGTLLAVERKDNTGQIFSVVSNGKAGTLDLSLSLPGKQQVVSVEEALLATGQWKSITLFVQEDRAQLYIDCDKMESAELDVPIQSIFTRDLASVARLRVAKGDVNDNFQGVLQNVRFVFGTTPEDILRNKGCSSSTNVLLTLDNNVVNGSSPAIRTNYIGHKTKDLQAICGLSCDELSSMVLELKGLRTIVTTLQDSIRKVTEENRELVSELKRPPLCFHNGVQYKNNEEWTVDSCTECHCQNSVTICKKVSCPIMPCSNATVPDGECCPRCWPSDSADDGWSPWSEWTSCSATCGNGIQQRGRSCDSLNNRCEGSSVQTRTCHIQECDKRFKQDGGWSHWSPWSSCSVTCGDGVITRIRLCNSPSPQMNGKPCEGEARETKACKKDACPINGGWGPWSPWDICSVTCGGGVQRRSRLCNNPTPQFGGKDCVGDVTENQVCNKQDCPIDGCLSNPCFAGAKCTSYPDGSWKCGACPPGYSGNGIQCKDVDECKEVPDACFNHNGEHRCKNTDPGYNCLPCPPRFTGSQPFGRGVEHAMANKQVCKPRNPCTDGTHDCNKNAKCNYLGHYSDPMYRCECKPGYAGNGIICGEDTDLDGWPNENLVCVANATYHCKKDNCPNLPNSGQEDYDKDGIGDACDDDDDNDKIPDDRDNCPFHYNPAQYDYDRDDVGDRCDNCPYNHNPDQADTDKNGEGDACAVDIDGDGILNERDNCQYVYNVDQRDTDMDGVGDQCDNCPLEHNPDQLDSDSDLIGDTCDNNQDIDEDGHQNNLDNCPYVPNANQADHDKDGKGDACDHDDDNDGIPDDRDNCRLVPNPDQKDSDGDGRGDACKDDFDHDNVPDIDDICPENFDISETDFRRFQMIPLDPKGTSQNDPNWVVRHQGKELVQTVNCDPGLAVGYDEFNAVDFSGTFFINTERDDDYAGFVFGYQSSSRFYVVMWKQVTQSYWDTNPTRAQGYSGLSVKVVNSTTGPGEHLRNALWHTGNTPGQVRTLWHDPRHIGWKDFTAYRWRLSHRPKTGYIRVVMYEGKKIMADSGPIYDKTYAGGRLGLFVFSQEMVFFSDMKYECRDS

Target: recombinant mouse thrombospondin-1 with a C-terminal 6His tag (mouse) (UniProt P35441)
Experiment: SPR; Biacore T200; rmTSP-1 captured by its C-terminal 6His tag on anti-histidine antibody amine-coupled to a CM5 chip (2931 RU); peptides injected for 120 s at 30 uL/min, 25 °C; running buffer 10 mM HEPES, 0.15 M NaCl, 0.05% surfactant P20, 5 mM CaCl2, pH 7.4; single injections at 1 mM; single-cycle kinetics at 15.625-250 uM; contact-time experiment (30-600 s) at 500 uM TAX2; two-state reaction model, apparent KD; both purified

LSVDESKAQGIL [control scrambled peptide]
binding: no binding (tested: 1 mM)
